Data: patent publication US5998594A, “Self-assembling, chromogenic receptors for the recognition of medically important substrates and their method of use” (University of Pittsburgh of the Commonwealth System of …, priority 1994, dated 1999)
Where “and” joins values, the source holds several entries; their conditions need not be identical. Equal values may be shown once.

Tests used:
Assay type in all cases: binding
[1] = UV-vis titration (ΔA550) with 1,3-phenylenediacetic acid in CHCl3; details: 1,3-phenylenediacetic acid 2:1 complex
From the text: (§1) Complexation of Receptor 1 with Dicarboxylic Acids. Receptor 1 is a bis(acylaminopyridine) receptor and as such was expected to form strong bidentate interactions with dicarboxylic acids in chloroform. This was indeed the case, as 1 was found by NMR to bind glutaric acid with an association constant of 3.6×10^4 M^-1. Large changes in proton chemical shifts of 1 indicate that the dicarboxylic acid is hydrogen bonded simultaneously to the two acylaminopyridines moieties. […] The contribution of the phenanthroline to binding is uncertain, but it appears to play only a minor role; no protons on the phenanthroline ring shifted more than 0.014 ppm during the course of the titration. […] The stoichiometry of the complexes was 2:1 as determined by the concentration of dicarboxylic acid at which saturation of the receptor was found and independently determined by a Job's plot. A Job's plot is used to measure stoichiometry based on continuous variations of constant concentrations. Binding was most conveniently followed by UV-vis spectroscopy (ΔA550) and was checked against NMR results for pimelic acid and glutaric acid. The binding data was analyzed by assuming that two independent and equal bidentate binding sites are interacting with the substrate. In this way a single association constant is obtained that represents the strength of binding of one of the receptor binding sites with one substrate. […]

[2] = UV-vis titration (ΔA550) with glutaric acid in CHCl3; details: glutaric acid 2:1 complex
Method: FIG. 3 discloses the change in the visible absorption spectrum of Cu(1)2^+ BF4^- upon addition of glutaric acid in CHCl3 [Cu(1)2^+ BF4^- ]=0.106 mM, [glutaric acid]=0-0.5 mM.
FIG. 4 discloses the change in the visible absorption spectrum of [Cu(L)2^+ BF4^- ] upon addition of glutaric acid in CHCl3. [Cu(L)2^+ BF4^- ]=0-0.125 mM [glutaric acid]=0-0.40 mM.
Complexation of Receptor 1 with Dicarboxylic Acids. Receptor 1 is a bis(acylaminopyridine) receptor and as such was expected to form strong bidentate interactions with dicarboxylic acids in chloroform. This was indeed the case, as 1 was found by NMR to bind glutaric acid with an association constant of 3.6×10^4 M^-1. […] The stoichiometry of the complexes was 2:1 as determined by the concentration of dicarboxylic acid at which saturation of the receptor was found and independently determined by a Job's plot. […] The binding data was analyzed by assuming that two independent and equal bidentate binding sites are interacting with the substrate. […]
The origin of the chromogenic effect is definitely a direct result of the bidentate binding of dicarboxylic acids to the receptors. Addition of large excesses of monocarboxylic acids (acetic or trifluoroacetic) to a CHCl3 solution of either Cu(I)-based receptor leads to only minor changes in the absorbance spectrum. […]

[3] = UV-vis titration (ΔA550) with N-Cbz-glutamic acid in CHCl3; details: N-Cbz-glutamic acid 2:1 complex
From the text: as §1, with “Binding was most conveniently followed by UV-vis spectroscopy (ΔA550) and was checked against NMR results for pimelic acid and glutaric acid.” left out, “substrate.” for “substrate. In this way a single association constant is obtained that represents the strength of binding of one of the receptor binding sites with one substrate.”
In the binding mode proposed in FIG. 5, the structure of the 2:1 complex of glutaric acid with Cu(1)2^+ BF4^- is chiral, similar to a double helix. […] This complicates the analysis of binding because six possibly different binding constants need to be evaluated. […]

[4] = NMR titration with glutaric acid
From the text: Complexation of Receptor 1 with Dicarboxylic Acids. Receptor 1 is a bis(acylaminopyridine) receptor and as such was expected to form strong bidentate interactions with dicarboxylic acids in chloroform. This was indeed the case, as 1 was found by NMR to bind glutaric acid with an association constant of 3.6×10^4 M^-1. Large changes in proton chemical shifts of 1 indicate that the dicarboxylic acid is hydrogen bonded simultaneously to the two acylaminopyridines moieties. […] The contribution of the phenanthroline to binding is uncertain, but it appears to play only a minor role; no protons on the phenanthroline ring shifted more than 0.014 ppm during the course of the titration. […] The stoichiometry of the complexes was 2:1 as determined by the concentration of dicarboxylic acid at which saturation of the receptor was found and independently determined by a Job's plot. A Job's plot is used to measure stoichiometry based on continuous variations of constant concentrations. Binding was most conveniently followed by UV-vis spectroscopy (ΔA550) and was checked against NMR results for pimelic acid and glutaric acid. The binding data was analyzed by assuming that two independent and equal bidentate binding sites are interacting with the substrate. In this way a single association constant is obtained that represents the strength of binding of one of the receptor binding sites with one substrate. […] An exception was N-Cbz-glutamic acid, which is understandable because there are several diastereotopic complexes present (vide infra), each with a different Ka.

| Compound | max (nm) 2:1 complex [1] | max (nm) 2:1 complex [2] | max (nm) 2:1 complex [3] | proton shift on binding, H3, H3' of the phenyl ring (Δδ) [4] | proton shift on binding, H3 of the aminopyridine ring (Δδ) [4] | proton shift on binding, amide protons (Δδ) [4] | proton shift on binding, phenanthroline ring protons [4] [ppm] |
| --- | --- | --- | --- | --- | --- | --- | --- |
| Cc1cccc(NC(=O)c2ccc(-c3ccc4ccc5ccc(-c6ccc(C(=O)Nc7cccc(C)n7)cc6)nc5c4n3)cc2)n1.Cc1cccc(NC(=O)c2ccc(-c3ccc4ccc5ccc(-c6ccc(C(=O)Nc7cccc(C)n7)cc6)nc5c4n3)cc2)n1.F[B-](F)(F)F.[Cu+] [Cu(1)2^+ BF4^-] | 422 nm and 534 nm | 420 nm and 518 nm | 420 nm and 526 nm | – | – | – | – |
| Cc1cccc(NC(=O)c2ccc(-c3ccc4ccc5ccc(-c6ccc(C(=O)Nc7cccc(C)n7)cc6)nc5c4n3)cc2)n1 [Receptor 1] | – | – | – | ~ 0.14 ppm | ~ 0.13 ppm | ~ 2.4 ppm | ≤ 0.014 |
